PubChem BioAssay AID504786 | Drosophila RNAi Screening Center | 2011
The deposit covers about 21,000 reagents; below is a random part of those with a known target gene and a result. 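Primary screen; positive scores mean lost reporter signal, so the sign may be inverted from the usual convention.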 Names joined by + are all predicted targets of the reagent. Not all columns of the deposit are shown. No sequences are given here.

Screen: 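Positive regulators of HIF-driven reporter output in Drosophila cells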 (primary screen)
Cells: Drosophila S2 cells with a stable HIF luciferase reporter
Reagents: long dsRNA against Drosophila genes, about 0.2 µg dsRNA per well of a 384-well plate
Duration: three days of knock-down, then 20 h of DFO before reading
Treatment: desferrioxamine (DFO) at 100 µM, an iron chelator that mimics hypoxia, for 20 h
Measured: 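HIF reporter luminescence in cells given 100 µM DFO for 20 h, using the mouse ldh-a hypoxia-response element, scored as per-plate z-scores; higher means greater loss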
Direction: z-score: higher = stronger loss of HIF reporter signal

| Gene | PubChem SID | z-score, replicate 1 |
| --- | --- | --- |
| His3.3A (GeneID 33736) | SID104183135 | -0.1 |
| CG4822 (GeneID 33170) | SID104180461 | -0.1 |
| Oseg6 (GeneID 37245) | SID104185858 | -0.4 |
| CG16995 (GeneID 33413) | SID104180272 | -0.2 |
| CG12491 + CG34105 | SID104183800 | -0.2 |
| CG12491 + CG34105 | SID104183916 | -0.3 |
| CG5773 (GeneID 37053) | SID104186747 | -0.1 |
| CG6337 (GeneID 36530) | SID104186769 | -0.4 |
| CG10839 (GeneID 34944) | SID104181757 | 0.2 |
| CG34290 (GeneID 5740609) | SID104193452 | -0.3 |
| CG32773 (retired record) (GeneID 318204) | SID104197122 | -0.2 |
| CG31102 (GeneID 326118) | SID104194052 | -0.4 |
| RyR (GeneID 49090) | SID104187335 | -0.3 |
| CG30031 + deltaTry + CG30025 + 1 more | SID104201054 | -0.3 |
| Muc12Ea (GeneID 32384) | SID104199729 | -0.4 |
| Gr64d + Gr64e | SID104188238 | -0.4 |
| ninaD (GeneID 326160) | SID104182678 | -0.2 |
| CG12869 (GeneID 36616) | SID104186000 | -0.4 |
| Prosalpha4T2 (GeneID 37910) | SID104184435 | -0.1 |
| NT1 (GeneID 38558) | SID104188322 | -0.3 |
| CG9302 (GeneID 34750) | SID104182983 | -0.6 |
| CG8814 (GeneID 33492) | SID104180499 | -0.4 |
| Atf6 (GeneID 35480) | SID104184535 | -0.1 |
| Atf6 (GeneID 35480) | SID104184681 | -0.2 |
| Nepl5 (GeneID 33892) | SID104183033 | -0.3 |
| CG14731 (GeneID 41442) | SID104194744 | -0.4 |
| RluA-1 (GeneID 34438) | SID104182032 | -0.2 |
| RluA-1 (GeneID 34438) | SID104182852 | -0.3 |
| Cat (GeneID 40048) | SID104190902 | -0.2 |
| CG34129 (GeneID 43181) | SID104195752 | 0 |
| CG31249 (GeneID 42129) | SID104196040 | -0.3 |
| CG10013 (GeneID 41494) | SID104193967 | -0.3 |
| CG14851 (GeneID 41763) | SID104194767 | -0.4 |
| CG3999 (GeneID 41253) | SID104195326 | -0.3 |
| Rok (GeneID 43916) | SID104200069 | -0.2 |
| mid (GeneID 33770) | SID104182769 | -0.2 |
| Gs2 (GeneID 32087) | SID104200042 | -0.2 |
| RpL29 (GeneID 37430) | SID104184442 | -0.3 |
| Klp98A (GeneID 43310) | SID104196516 | 0 |
| CG5934 (GeneID 43289) | SID104195714 | -0.3 |
| CG4364 (GeneID 34287) | SID104182534 | -0.4 |
| CG10959 (GeneID 31743) | SID104197561 | -0.1 |
| Kyat (GeneID 41433) | SID104195939 | -0.2 |
| bond (GeneID 42657) | SID104195927 | -0.2 |
| Grip91 (GeneID 48481) | SID104200041 | 0.2 |
| Arpc3A (GeneID 41917) | SID104195388 | 0.4 |
| CG14130 (GeneID 39335) | SID104189926 | 0 |
| CG17801 (GeneID 42144) | SID104195065 | -0.3 |
| CAH6 (GeneID 43701) | SID104195297 | -0.2 |
| CG31109 (GeneID 43001) | SID104194440 | -0.4 |
| CG5116 (GeneID 43081) | SID104195512 | 0.6 |
| Ir60a (GeneID 37881) | SID104184004 | -0.2 |
| CG12851 (GeneID 37993) | SID104183923 | 0.1 |
| Ir68b (GeneID 39378) | SID104190043 | -0.3 |
| CG33230 (GeneID 2768998) | SID104188394 | -0.1 |
| CG11030 (GeneID 33805) | SID104181912 | -0.2 |
